This is an account of results in article PMC6168483.

Sequences of proteins named here, by UniProt entry; tags and fusion partners are left off.
UniProt Q9Y618: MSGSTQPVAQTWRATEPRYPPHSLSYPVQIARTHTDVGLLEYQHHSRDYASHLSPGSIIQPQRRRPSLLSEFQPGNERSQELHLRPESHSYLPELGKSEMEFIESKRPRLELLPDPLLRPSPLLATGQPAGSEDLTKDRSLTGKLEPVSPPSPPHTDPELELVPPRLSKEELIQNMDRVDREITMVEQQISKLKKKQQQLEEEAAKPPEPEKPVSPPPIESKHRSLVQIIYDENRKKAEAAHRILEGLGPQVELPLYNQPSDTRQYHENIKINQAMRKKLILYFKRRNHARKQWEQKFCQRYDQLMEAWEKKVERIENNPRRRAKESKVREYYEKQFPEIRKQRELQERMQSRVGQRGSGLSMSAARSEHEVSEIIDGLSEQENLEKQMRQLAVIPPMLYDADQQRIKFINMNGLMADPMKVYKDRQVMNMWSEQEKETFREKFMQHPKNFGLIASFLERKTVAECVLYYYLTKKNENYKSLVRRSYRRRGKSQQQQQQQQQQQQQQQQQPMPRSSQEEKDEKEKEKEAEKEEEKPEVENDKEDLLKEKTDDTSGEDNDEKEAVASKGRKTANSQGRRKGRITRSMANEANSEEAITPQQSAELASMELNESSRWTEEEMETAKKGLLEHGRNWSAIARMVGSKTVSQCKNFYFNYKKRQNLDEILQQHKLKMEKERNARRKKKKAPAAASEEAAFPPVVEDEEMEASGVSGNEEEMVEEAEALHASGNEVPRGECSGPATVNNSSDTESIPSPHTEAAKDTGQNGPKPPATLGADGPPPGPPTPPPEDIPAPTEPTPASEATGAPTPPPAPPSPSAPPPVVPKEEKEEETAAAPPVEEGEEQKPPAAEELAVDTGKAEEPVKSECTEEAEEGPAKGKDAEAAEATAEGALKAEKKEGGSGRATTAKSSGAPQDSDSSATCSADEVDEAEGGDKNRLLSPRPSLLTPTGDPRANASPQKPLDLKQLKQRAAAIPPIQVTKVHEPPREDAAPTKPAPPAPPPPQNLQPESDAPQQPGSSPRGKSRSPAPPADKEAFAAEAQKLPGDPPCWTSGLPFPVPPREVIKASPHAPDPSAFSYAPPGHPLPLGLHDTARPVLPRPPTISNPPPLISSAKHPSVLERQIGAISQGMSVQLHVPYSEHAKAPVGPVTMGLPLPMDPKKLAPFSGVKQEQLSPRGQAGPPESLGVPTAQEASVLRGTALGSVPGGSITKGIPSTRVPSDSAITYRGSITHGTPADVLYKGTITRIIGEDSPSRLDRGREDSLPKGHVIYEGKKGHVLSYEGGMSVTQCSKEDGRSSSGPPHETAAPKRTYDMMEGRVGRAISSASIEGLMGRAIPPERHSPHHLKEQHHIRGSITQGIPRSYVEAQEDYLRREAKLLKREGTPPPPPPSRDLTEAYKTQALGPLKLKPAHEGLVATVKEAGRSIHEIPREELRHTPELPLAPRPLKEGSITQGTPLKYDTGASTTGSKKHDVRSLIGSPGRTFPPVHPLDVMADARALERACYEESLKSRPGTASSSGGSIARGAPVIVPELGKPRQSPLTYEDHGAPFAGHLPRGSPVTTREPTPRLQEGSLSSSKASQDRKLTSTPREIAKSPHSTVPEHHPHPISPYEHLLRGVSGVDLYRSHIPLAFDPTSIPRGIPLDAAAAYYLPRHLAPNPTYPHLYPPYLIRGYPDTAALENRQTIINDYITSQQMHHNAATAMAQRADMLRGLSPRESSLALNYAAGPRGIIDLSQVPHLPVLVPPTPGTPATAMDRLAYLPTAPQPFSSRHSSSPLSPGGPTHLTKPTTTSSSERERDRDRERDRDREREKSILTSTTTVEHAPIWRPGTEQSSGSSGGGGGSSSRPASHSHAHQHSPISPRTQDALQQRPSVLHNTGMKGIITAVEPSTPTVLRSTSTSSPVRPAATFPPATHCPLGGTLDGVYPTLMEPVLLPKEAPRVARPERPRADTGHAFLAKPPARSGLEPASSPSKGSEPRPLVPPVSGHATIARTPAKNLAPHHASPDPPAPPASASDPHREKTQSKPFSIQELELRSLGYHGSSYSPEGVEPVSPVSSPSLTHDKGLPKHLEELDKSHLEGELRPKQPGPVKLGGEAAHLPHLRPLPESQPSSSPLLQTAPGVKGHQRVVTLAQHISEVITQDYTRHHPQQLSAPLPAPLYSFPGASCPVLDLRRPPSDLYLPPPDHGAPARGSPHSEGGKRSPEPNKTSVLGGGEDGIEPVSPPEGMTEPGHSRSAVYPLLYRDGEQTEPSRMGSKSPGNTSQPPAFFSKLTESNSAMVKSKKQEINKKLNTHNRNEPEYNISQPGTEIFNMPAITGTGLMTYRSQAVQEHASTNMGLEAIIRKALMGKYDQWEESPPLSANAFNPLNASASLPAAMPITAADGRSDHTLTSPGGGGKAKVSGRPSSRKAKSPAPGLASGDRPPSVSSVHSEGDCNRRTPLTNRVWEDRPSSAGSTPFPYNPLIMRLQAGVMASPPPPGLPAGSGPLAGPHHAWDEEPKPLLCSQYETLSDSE

Results are given in words; binding and its absence hold for the method and conditions named. Some results given as binding are weak or reduced against the parent protein; the word gives no strength.

In one assay the target is SMRT, Q9Y618. The assay can be described thus: co-purification of a recombinant complex; complexes transfected, expressed and purified as previously described (refs 23, 43); bait and purification steps not given. As to conditions: remark: other sources report otherwise.
A further assay has as its target SMRT (UniProt Q9Y618). The assay is described as above.

B1: HDAC3, O15379 1-428 (enzyme)
chain: MAKTVAYFYDPDVGNFHYGAGHPMKPHRLALTHSLVLHYGLYKKMIVFKPYQASQHDMCRFHSEDYIDFLQRVSPTNMQGFTKSLNAFNVGDDCPVFPGLFEFCSRYTGASLQGATQLNNKICDIAINWAGGLHHAKKFEASGFCYVNDIVIGILELLKYHPRVLYIDIDIHHGDGVQEAFYLTDRVMTVSFHKYGNYFFPGTGDMYEVGAESGRYYCLNVPLRDGIDDQSYKHLFQPVINQVVDFYQPTCIVLQCGADSLGCDRLGCFNLSIRGHGECVEYVKSFNIPLLVLGGGGYTVRNVARCWTYETSLLVEEAISEELPYSEYFEYFAPDFTLHPDVSTRIENQNSRQYLDQIRQTIFENLKMLNHAPSVQIHDVPADLLTYDRTDEADAEERGPEENYSRPEAPNEFYDGDHDNDKESDVEI
As for B1, in the assay with SMRT, Q9Y618, the binding entry is “binds”.

B2: TBL1 (protein, UniProt O60907 1-577)
chain: MTELAGASSSCCHRPAGRGAMQSVLHHFQRLRGREGGSHFINTSSPRGEAKMSITSDEVNFLVYRYLQESGFSHSAFTFGIESHISQSNINGTLVPPAALISILQKGLQYVEAEISINEDGTVFDGRPIESLSLIDAVMPDVVQTRQQAFREKLAQQQASAAAAAAAATAAATAATTTSAGVSHQNPSKNREATVNGEENRAHSVNNHAKPMEIDGEVEIPSSKATVLRGHESEVFICAWNPVSDLLASGSGDSTARIWNLNENSNGGSTQLVLRHCIREGGHDVPSNKDVTSLDWNTNGTLLATGSYDGFARIWTEDGNLASTLGQHKGPIFALKWNRKGNYILSAGVDKTTIIWDAHTGEAKQQFPFHSAPALDVDWQNNTTFASCSTDMCIHVCRLGCDRPVKTFQGHTNEVNAIKWDPSGMLLASCSDDMTLKIWSMKQEVCIHDLQAHNKEIYTIKWSPTGPATSNPNSNIMLASASFDSTVRLWDIERGVCTHTLTKHQEPVYSVAFSPDGKYLASGSFDKCVHIWNTQSGNLVHSYRGTGGIFEVCWNARGDKVGASASDGSVCVLDLRK
With B2, in the assay with SMRT, the binding result was “binds”.
